Measurements: patent US7385026B1 (priority 1999, dated 2008)

How the values were obtained:
Details in all cases: whole synthesis, scale 0.25 mmol
[1] = general procedure: Fmoc solid-phase peptide synthesis; Fmoc-Arg(Pmc)-HMP resin; HBTU/HOBt; DCC/HOBt for final Boc-Gly
[2] = general procedure: Fmoc solid-phase peptide synthesis; Fmoc-Arg(Pmc)-HMP-resin; HBTU/HOBt; DCC/HOBt for final Boc-Gly
[3] = general procedure: Fmoc solid-phase peptide synthesis; Fmoc-amide-resin; HBTU/HOBt; DCC/HOBt for final Boc-Gly
[4] = general procedure: Fmoc solid-phase peptide synthesis; Fmoc-amide resin; HBTU/HOBt; DCC/HOBt for final Boc-Gly

For GSC(C-Ph3) FLSPEHQRVQQRKESKKPPAKLQPR, the isolated mass [1] was “about 60 mg”.

For “GSK (CO—C7H15) FLSPEHQRVQQRKESKKPPAKLQPR”, the crude mass [2] was “about 234 mg”.

With GSS(CO—C7H15)FLSPEHQRVQQRKESKKPPAKLQPR the crude mass [2] was “about 550 mg”.

In the case of GSS(CO—C7H15)FLSPEH-NH2, the crude mass [3] is reported as “about 250 mg”.

In the case of C7H15CO-GSSFLSPEH-NH2, the crude mass [4] is reported as 200 mg.

In the case of “GSD (NH—C7H15) FLSPEHQRVQQRKESKKPPAKLQPR”, the crude mass [2] is reported as “about 550 mg”.

In the case of “NH2—(CH2)4—CO-Ser(C8H17)-MePhe-MeLeu-NH2”, the crude mass [4] is reported as 120 mg.
